Laboratory results from paper PMC7206739.

T1: HA-tagged mouse NSMCE4A (mouse) (UniProt G3XA30)
T1 sequence: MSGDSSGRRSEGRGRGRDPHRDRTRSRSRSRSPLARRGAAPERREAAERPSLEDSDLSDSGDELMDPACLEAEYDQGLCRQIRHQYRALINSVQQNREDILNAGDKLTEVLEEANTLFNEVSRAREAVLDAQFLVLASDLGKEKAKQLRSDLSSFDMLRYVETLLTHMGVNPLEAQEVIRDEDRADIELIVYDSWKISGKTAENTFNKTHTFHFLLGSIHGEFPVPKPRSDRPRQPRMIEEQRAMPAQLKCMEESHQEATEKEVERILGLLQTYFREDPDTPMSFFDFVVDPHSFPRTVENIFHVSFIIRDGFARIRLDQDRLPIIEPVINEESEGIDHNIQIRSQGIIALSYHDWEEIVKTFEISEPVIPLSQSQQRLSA

T2: NSMCE4A bait (full length, mouse) (mouse) (UniProt G3XA30)
T2 sequence: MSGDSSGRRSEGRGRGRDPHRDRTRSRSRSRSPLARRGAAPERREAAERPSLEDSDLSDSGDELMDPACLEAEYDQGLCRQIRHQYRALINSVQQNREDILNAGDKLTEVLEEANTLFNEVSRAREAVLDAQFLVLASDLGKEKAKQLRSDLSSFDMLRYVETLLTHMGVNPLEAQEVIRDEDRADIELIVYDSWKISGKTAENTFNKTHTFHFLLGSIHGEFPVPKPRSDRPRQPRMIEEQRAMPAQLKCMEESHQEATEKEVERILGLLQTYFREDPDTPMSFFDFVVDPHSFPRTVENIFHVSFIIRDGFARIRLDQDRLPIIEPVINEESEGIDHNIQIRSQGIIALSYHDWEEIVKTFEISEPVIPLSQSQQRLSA


Columns and labels:
[1] = molecular target: T1, HA-tagged mouse NSMCE4A (mouse); assay: co-IP; FLAG-tagged GPS1 and HA-tagged NSMCE4A expressed or co-expressed in HEK 293T cells; anti-FLAG or anti-HA antibody coupled to Dynabeads; lysis buffer with 100 mM NaCl, 1 mM DTT; western blot
[2] = molecular target: T2, NSMCE4A bait (full length, mouse) (mouse); assay: two-hybrid; full length NSMCE4A bait against defined GPS1 prey constructs; growth on SD -Leu -Trp with 200 ng/ml Aureobasidin A, -Ade or -His
[3] = molecular target: FLAG-tagged mouse GPS1 (mouse); assay: co-IP; FLAG-tagged GPS1 and HA-tagged NSMCE4A expressed or co-expressed in HEK 293T cells; anti-FLAG or anti-HA antibody coupled to Dynabeads; lysis buffer with 100 mM NaCl, 1 mM DTT; western blot

Molecule | binding [2] | binding [3] | also measured
FLAG-tagged mouse GPS1 |  |  | binding [1]: binds
GPS1, 1–526 aa (full-length prey) (mouse) | binds weakly |  | 
GPS1, 77–526 aa (prey) (mouse) (domain or fragment) | binds |  | 

The next lines start with results.

binding [2] | binding [3] | Molecule | also measured
 | binds | NSMCE1 (protein, UniProt Q8WV22 1-266) MQGSTRRMGVMTDVHRRFLQLLMTHGVLEEWDVKRLQTHCYKVHDRNATVDKLEDFINNINSVLESLYIEIKRGVTEDDGRPIYALVNLATTSISKMATDFAENELDLFRKALELIIDSETGFASSTNILNLVDQLKGKKMRKKEAEQVLQKFVQNKWLIEKEGEFTLHGRAILEMEQYIRETYPDAVKICNICHSLLIQGQSCETCGIRMHLPCVAKYFQSNAEPRCPHCNDYWPHEIPKVFDPEKERESGVLKSNKKSLRSRQH | 
 | binds | HA-tagged mouse NSMCE4A (protein, UniProt G3XA30 1-381) MSGDSSGRRSEGRGRGRDPHRDRTRSRSRSRSPLARRGAAPERREAAERPSLEDSDLSDSGDELMDPACLEAEYDQGLCRQIRHQYRALINSVQQNREDILNAGDKLTEVLEEANTLFNEVSRAREAVLDAQFLVLASDLGKEKAKQLRSDLSSFDMLRYVETLLTHMGVNPLEAQEVIRDEDRADIELIVYDSWKISGKTAENTFNKTHTFHFLLGSIHGEFPVPKPRSDRPRQPRMIEEQRAMPAQLKCMEESHQEATEKEVERILGLLQTYFREDPDTPMSFFDFVVDPHSFPRTVENIFHVSFIIRDGFARIRLDQDRLPIIEPVINEESEGIDHNIQIRSQGIIALSYHDWEEIVKTFEISEPVIPLSQSQQRLSA | 

No constants are given. Whether binding was seen depends on the method and setting. A result given as binding can be weak or reduced; the word gives no strength. For some assays here: In cells and extracts the contact can be indirect. For some assays here: Tags and fused reporters may be left off the sequences shown.
